Data taken from the supplement of paper PMC10849652.
The list shows a part of the results.

Sequences of proteins named here, by UniProt entry; tags and fusion partners are left off. A change or cut given only in a name is not applied to a line headed by its entry.
UniProt Q2M296: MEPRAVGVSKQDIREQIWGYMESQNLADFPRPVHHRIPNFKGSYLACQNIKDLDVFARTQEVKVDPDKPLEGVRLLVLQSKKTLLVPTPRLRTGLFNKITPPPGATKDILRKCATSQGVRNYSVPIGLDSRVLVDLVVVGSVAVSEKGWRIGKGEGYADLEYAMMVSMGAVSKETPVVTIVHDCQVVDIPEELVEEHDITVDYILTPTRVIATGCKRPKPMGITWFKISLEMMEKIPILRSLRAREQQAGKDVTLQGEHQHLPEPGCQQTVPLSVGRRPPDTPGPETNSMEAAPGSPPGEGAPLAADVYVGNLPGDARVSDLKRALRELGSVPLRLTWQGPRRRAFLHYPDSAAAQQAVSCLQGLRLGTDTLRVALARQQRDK
UniProt Q9HD23: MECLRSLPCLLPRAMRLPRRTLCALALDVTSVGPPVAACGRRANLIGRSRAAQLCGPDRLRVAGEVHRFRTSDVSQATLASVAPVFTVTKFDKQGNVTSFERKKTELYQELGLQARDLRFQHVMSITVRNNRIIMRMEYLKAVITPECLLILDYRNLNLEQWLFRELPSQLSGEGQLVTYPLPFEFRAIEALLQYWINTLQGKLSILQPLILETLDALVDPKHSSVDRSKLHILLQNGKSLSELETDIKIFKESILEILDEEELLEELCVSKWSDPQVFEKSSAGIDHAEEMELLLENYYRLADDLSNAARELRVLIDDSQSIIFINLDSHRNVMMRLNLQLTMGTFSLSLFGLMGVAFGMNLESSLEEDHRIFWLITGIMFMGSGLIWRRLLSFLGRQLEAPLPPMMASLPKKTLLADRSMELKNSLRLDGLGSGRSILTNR
UniProt Q96DP5: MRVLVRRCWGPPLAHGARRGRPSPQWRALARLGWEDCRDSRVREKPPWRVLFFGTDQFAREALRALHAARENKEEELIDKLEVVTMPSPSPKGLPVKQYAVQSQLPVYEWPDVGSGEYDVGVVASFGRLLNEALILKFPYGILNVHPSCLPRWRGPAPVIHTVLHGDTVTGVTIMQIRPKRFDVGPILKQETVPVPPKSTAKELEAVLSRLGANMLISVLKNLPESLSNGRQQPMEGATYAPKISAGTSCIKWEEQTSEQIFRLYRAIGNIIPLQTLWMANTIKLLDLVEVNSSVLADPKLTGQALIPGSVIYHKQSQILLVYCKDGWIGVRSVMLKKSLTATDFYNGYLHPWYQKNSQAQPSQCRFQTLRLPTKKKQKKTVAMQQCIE
UniProt Q8N5Y2: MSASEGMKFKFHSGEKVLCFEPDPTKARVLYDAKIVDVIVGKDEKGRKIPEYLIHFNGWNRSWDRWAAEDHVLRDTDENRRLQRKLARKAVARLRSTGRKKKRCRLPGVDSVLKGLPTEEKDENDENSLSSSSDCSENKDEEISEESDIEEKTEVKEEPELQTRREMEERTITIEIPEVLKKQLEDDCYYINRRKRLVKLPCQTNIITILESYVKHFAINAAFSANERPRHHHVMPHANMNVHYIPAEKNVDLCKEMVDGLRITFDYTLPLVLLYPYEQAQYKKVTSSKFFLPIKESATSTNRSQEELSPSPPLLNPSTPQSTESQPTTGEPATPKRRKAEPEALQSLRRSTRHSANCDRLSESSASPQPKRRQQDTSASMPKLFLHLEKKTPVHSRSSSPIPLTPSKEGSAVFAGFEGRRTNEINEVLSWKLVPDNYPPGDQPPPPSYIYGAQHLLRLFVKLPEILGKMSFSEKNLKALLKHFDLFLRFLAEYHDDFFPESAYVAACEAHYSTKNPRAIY
UniProt Q96EF0: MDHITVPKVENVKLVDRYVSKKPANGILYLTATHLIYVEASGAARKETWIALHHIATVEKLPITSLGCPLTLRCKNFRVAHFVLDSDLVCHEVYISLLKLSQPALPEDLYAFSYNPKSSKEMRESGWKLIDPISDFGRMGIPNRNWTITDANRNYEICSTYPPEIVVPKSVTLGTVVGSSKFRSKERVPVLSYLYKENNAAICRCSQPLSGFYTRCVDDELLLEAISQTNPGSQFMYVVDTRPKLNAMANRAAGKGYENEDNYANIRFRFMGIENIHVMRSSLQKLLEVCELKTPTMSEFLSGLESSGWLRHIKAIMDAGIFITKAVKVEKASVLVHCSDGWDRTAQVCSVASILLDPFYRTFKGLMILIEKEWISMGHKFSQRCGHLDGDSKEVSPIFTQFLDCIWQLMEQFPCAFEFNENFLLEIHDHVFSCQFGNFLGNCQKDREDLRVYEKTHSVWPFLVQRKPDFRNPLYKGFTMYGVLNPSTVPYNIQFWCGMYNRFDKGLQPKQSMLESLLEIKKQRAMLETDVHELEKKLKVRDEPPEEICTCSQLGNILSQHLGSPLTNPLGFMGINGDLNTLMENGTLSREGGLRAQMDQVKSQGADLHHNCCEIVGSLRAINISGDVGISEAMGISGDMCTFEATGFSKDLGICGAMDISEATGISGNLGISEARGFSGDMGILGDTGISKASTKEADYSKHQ

How the values were obtained:
Experiment in all cases: log2 fold change, soluble protein after heating vs DMSO (PISA); higher = thermal stabilisation; K562 lysate, 10 uM; active = over 0.2 and 3.5 SD of the protein, either way, in both replicates (recomputed)
lapatinib = compound: CS(=O)(=O)CCNCc1ccc(-c2ccc3ncnc(Nc4ccc(OCc5cccc(F)c5)c(Cl)c4)c3c2)o1 [lapatinib]
How it was run: (§1)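 Values give the log-two fold change in thermal stability against solvent controls, from duplicates. Crude K562 extract at 1 mg/mL protein, made by dounce homogenisation in PBS pH 7.4 with 1 mM MgCl2, was treated with 10 μM compound for 30 min. After 3 min heating across 48°C-58°C, aliquots were pooled, adjusted to 0.5% NP-40 at 4°C and centrifuged at 21,000xg for 90 min. The supernatant was measured by TMTpro 16plex LC-MS/MS with channel sums equalised.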

pictilisib = compound: CS(=O)(=O)N1CCN(Cc2cc3nc(-c4cccc5[nH]ncc45)nc(N4CCOCC4)c3s2)CC1 [pictilisib]
How it was run: as §1

crizotinib = compound: C[C@@H](Oc1cc(-c2cnn(C3CCNCC3)c2)cnc1N)c1c(Cl)ccc(F)c1Cl [crizotinib]
How it was run: as §1

[1] = compound: C[C@H](C1=CC=C(C=C1)C(=O)NC2=C3C=CNC3=NC=C2)N
How it was run: as §1

duvelisib = compound: C[C@H](Nc1ncnc2nc[nH]c12)c1cc2cccc(Cl)c2c(=O)n1-c1ccccc1 [duvelisib]
How it was run: as §1

gandotinib = compound: Cc1cc(Nc2cc(CN3CCOCC3)c3nc(C)c(Cc4ccc(Cl)cc4F)n3n2)n[nH]1 [gandotinib]
How it was run: as §1

tozasertib = compound: Cc1cc(Nc2cc(N3CCN(C)CC3)nc(Sc3ccc(NC(=O)C4CC4)cc3)n2)n[nH]1 [tozasertib]
How it was run: as §1

doramapimod = compound: Cc1ccc(-n2nc(C(C)(C)C)cc2NC(=O)Nc2ccc(OCCN3CCOCC3)c3ccccc23)cc1 [doramapimod]
How it was run: as §1

bafetinib = compound: Cc1ccc(NC(=O)c2ccc(CN3CC[C@H](N(C)C)C3)c(C(F)(F)F)c2)cc1Nc1nccc(-c2cncnc2)n1 [bafetinib]
How it was run: as §1

[2] = compound: Cc1cccc(CC(=O)N2CCc3c2ccc(-c2cn(C)c4ncnc(N)c24)c3F)n1
How it was run: as §1

nilotinib = compound: Cc1cn(-c2cc(NC(=O)c3ccc(C)c(Nc4nccc(-c5cccnc5)n4)c3)cc(C(F)(F)F)c2)cn1 [nilotinib]
How it was run: as §1

[3] = compound: Cc1nc(Nc2n[nH]c3c2CN(C(=O)N[C@H](CN(C)C)c2ccccc2)C3(C)C)c2sccc2n1
How it was run: as §1

dasatinib = compound: Cc1nc(Nc2ncc(C(=O)Nc3c(C)cccc3Cl)s2)cc(N2CCN(CCO)CC2)n1 [dasatinib]
How it was run: as §1

[4] = compound: Cc1ncc(-c2ccnc(Nc3ccc(S(C)(=O)=O)cc3)n2)n1C(C)C
How it was run: as §1

[5] = compound: Cn1cc(-c2ccc3c(c2)CCN3C(=O)Cc2cccc(C(F)(F)F)c2)c2c(N)ncnc21
How it was run: as §1

quisinostat = compound: Cn1cc(CNCC2CCN(c3ncc(C(=O)NO)cn3)CC2)c2ccccc21 [quisinostat]
How it was run: as §1

tipifarnib = compound: Cn1cncc1[C@@](N)(c1ccc(Cl)cc1)c1ccc2c(c1)c(-c1cccc(Cl)c1)cc(=O)n2C [tipifarnib]
How it was run: as §1

[6] = compound: NC(=O)Nc1cc(-c2cccc(F)c2)sc1C(=O)N[C@H]1CCCNC1
How it was run: as §1

[7] = compound: NC(=O)c1cnc(N[C@@H]2CCCC[C@@H]2N)nc1Nc1cccc(-n2nccn2)c1
How it was run: as §1

[8] = compound: NC1(c2ccc(-c3nc4ccn5c(=O)[nH]nc5c4cc3-c3ccccc3)cc2)CCC1
How it was run: as §1

Measured: log2 fold change

MRPL33 (UniProt O75394)
inactive: lapatinib 0.081 | pictilisib -0.013 | crizotinib 0.079 | [1] 0.013 | duvelisib -0.189 | gandotinib 0.038 | tozasertib 0.023 | doramapimod -0.033 | bafetinib -0.003 | [2] -0.05 | nilotinib 0.062 | [3] -0.074 | dasatinib -0.021 | [4] 0.073 | [5] -0.091 | quisinostat -0.017 | tipifarnib 0.08 | [6] 0.037 | [7] 0.076 | [8] 0.061

MTHFSD isoform 3 (UniProt Q2M296)
inactive: lapatinib 0.014 | pictilisib 0.032 | crizotinib 0.014 | [1] -0.04 | duvelisib -0.013 | gandotinib 0.091 | doramapimod 0.005 | bafetinib -0.016 | [2] -0.119 | nilotinib 0.139 | [3] 0.095 | dasatinib 0.03 | [4] -0.01 | [5] -0.029 | quisinostat -0.005 | tipifarnib -0.125 | [6] 0.053 | [7] -0.025 | [8] 0.047

MRPS9 (UniProt P82933)
inactive: lapatinib 0.012 | pictilisib 0.065 | crizotinib -0.032 | [1] -0.065 | duvelisib 0.029 | gandotinib 0.019 | tozasertib 0.008 | doramapimod 0.016 | bafetinib 0.018 | [2] 0.101 | nilotinib -0.038 | [3] 0.004 | dasatinib 0.028 | [4] -0.012 | [5] 0.034 | quisinostat 0.005 | tipifarnib 0.033 | [6] -0.015 | [7] 0 | [8] 0.018

MT-CO1 (UniProt P00395)
inactive: lapatinib -0.046 | pictilisib -0.002 | crizotinib 0.08 | [1] -0.13 | duvelisib 0.007 | gandotinib 0.088 | tozasertib -0.06 | doramapimod -0.07 | bafetinib 0.041 | [2] -0.003 | nilotinib 0.053 | [3] -0.002 | dasatinib -0.018 | [4] -0.078 | [5] -0.005 | quisinostat 0.038 | tipifarnib 0.032 | [6] -0.107 | [7] -0.08 | [8] 0.007

MRPL35 (UniProt Q9NZE8)
inactive: lapatinib 0.051 | pictilisib 0.001 | crizotinib 0.01 | [1] -0.207 | duvelisib -0.054 | gandotinib 0 | doramapimod -0.023 | bafetinib -0.02 | [2] 0.039 | nilotinib 0.05 | [3] -0.027 | dasatinib 0.062 | [4] 0.049 | [5] -0.028 | quisinostat 0.004 | tipifarnib -0.037 | [6] -0.034 | [7] -0.007 | [8] 0.056

MRS2 isoform 2 (UniProt Q9HD23)
inactive: crizotinib -0.113 | doramapimod 0.064 | nilotinib 0.093 | [3] -0.041 | [4] -0.166 | quisinostat -0.126 | tipifarnib 0.097 | [6] -0.01

MTFMT (UniProt Q96DP5)
inactive: lapatinib 0.123 | crizotinib 0.106 | [1] -0.152 | duvelisib 0.243 | gandotinib 0.016 | doramapimod 0.101 | [2] 0.195 | nilotinib -0.12 | [3] -0.008 | dasatinib -0.09 | [4] 0.335 | [5] 0.174 | quisinostat -0.078 | tipifarnib 0.146 | [6] 0.098 | [7] -0.112 | [8] -0.021

MSL3 (UniProt Q8N5Y2)
inactive: crizotinib 0.008 | [1] -0.104 | duvelisib -0.032 | gandotinib -0.073 | tozasertib -0.124 | doramapimod 0.115 | [2] 0.002 | nilotinib -0.116 | [3] -0.023 | dasatinib 0.137 | [4] 0.122 | [5] -0.149 | quisinostat -0.126 | tipifarnib 0.033 | [6] -0.089 | [8] 0.014

MTMR8 (UniProt Q96EF0)
inactive: pictilisib 0.123 | duvelisib 0.089 | bafetinib -0.2 | dasatinib -0.102 | [5] 0.054 | [8] 0.06
